# Article PMC4177214
# Protein sequences, listed by entry. Tags and fused reporters are not part of them. Lines headed by an entry give the natural chain unless they say otherwise; changes in a name come on top.
# UniProt Q9VCG6: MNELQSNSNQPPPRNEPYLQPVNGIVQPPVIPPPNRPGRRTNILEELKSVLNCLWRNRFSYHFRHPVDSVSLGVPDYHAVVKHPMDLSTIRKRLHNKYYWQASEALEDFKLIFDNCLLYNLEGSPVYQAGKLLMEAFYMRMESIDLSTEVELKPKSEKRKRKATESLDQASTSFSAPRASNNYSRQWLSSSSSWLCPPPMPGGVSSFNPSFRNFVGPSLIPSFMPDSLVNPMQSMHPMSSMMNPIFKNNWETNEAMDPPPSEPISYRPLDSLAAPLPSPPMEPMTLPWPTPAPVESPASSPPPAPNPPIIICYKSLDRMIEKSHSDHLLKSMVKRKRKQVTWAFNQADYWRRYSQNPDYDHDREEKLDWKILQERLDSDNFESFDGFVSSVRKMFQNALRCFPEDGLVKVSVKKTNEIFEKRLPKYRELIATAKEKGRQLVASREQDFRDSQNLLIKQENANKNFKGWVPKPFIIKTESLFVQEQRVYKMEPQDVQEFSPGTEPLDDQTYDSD
# These are yes or no findings as the source states them, for the method shown. Binding can be weak; no strength is given.
# What was measured:
# Experiment in all cases: two-hybrid; Matchmaker GAL4 Two-Hybrid System 3 (Clontech); every coding region in pGBKT7 (DBD, bait) and pGADT7 (AD, prey); read-out colony growth and blue colour (lacZ)
# [1] = biological target: tBRD-3 (testis-specifically expressed bromodomain-containing protein-3) (Drosophila melanogaster) (UniProt Q4V6Y4)
# [2] = biological target: tBRD-2 (testis-specifically expressed bromodomain-containing protein-2) (Drosophila melanogaster) (UniProt Q4V5A7)
# [3] = biological target: Cannonball (Can) (Drosophila melanogaster) (UniProt Q9VT91)
Substance,binding [1],binding [2],binding [3]
tBRD-1 (testis-specifically expressed bromodomain-containing protein-1) (from UniProt Q9VCG6),binds,binds,binds
tBRD-2 (testis-specifically expressed bromodomain-containing protein-2) (from UniProt Q4V5A7),–,–,no binding
tBRD-3 (testis-specifically expressed bromodomain-containing protein-3) (from UniProt Q4V6Y4),–,–,no binding
